Measured data: PubChem BioAssay AID504804 (Drosophila RNAi Screening Center, 2011)
The screen tested about 19,000 reagents; below is a random part of those with a known target gene and a result. Over the whole deposit, 47 (0.25%) were called active. 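Signals are raw, not normalised; exact z-scores behind calls not deposited; actives needed confirmation, so some wells reaching 2 SD are inactive.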 Unmarked entries are inactive. Reagents against one gene are numbered here. A plus sign joins genes that one reagent is predicted to hit. No sequences are given here.

Aim: 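Knock-downs shielding fly cells from apoptosis caused by DNA damage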 (primary screen)
System: Drosophila Kc cells
Reagent: long dsRNA against Drosophila genes, 0.5 µg dsRNA per well
Timing: 96 h (48 h knock-down, then 48 h drug)
Conditions: doxorubicin 5 µg/ml for 48 h, added 48 h after dsRNA
Read-out: 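Viability measured as cellular ATP by luminescence after 48 h knock-down then 48 h doxorubicin at 5 µg/ml; unnormalised plate counts for each replicate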
Direction: raw ATP luminescence: higher = more viable cells, protection from doxorubicin
Active means: 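Active when both duplicate wells lie at least 2 SD above the plate mean and protection is confirmed by rescreening and independent dsRNAs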

| target gene | reagent | raw ATP luminescence, replicate 1 | raw ATP luminescence, replicate 2 |
| --- | --- | --- | --- |
| Hr78 | 1 | 17557 | 20967 |
| morgue | 1 | 1.30e5 | 82957 |
| CG31198 | 1 | 44163 | 43250 |
| fat-spondin | 1 | 65303 | 79030 |
| CG4691 | 1 | 1.01e5 | 74303 |
| Hsf | 1 | 54587 | 59067 |
| Dscam2 | 1 | 1.91e5 | 1.72e5 |
| Dscam2 | 2 | 65710 | 87163 |
| Dscam2 | 3 | 59090 | 81417 |
| Dscam2 | 4 | 58250 | 73097 |
| Mesh1 | 1 | 28930 | 39960 |
| dpr6 | 1 | 43830 | 60407 |
| dpr6 | 2 | 66667 | 65363 |
| dpr6 | 3 | 2.14e5 | 2.19e5 |
| Lint-O | 1 | 42420 | 49480 |
| GLS | 1 | 42257 | 43283 |
| CG13643 | 1 | 45270 | 52550 |
| CG13643 | 2 | 46670 | 48800 |
| Sym | 1 | 68120 | 26107 |
| Mks1 | 1 | 2.28e5 | 1.47e5 |
| CG15127 | 1 | 1.27e5 | 1.09e5 |
| CG6865 | 1 | 42587 | 32603 |
| CG33465 | 1 | 73930 | 75527 |
| RluA-2 | 1 | 96383 | 62103 |
| CG9897 + asRNA:CR42742 | 1 | 67240 | 54560 |
| CG6034 | 1 | 48827 | 47377 |
| Patj | 1 | 57090 | 44037 |
| CG12842 (retired record) | 1 | 43143 | 78860 |
| Lcp65Ab2 + Lcp65Ab1 | 1 | 83697 | 81647 |
| Lcp65Ab2 + Lcp65Ab1 | 2 | 96593 | 99380 |
| Oatp26F | 1 | 24387 | 33180 |
| Oatp26F | 2 | 19977 | 21353 |
| Oatp26F | 3 | 26577 | 21570 |
| Klp31E | 1 | 79480 | 56143 |

4 consecutive entries already listed, for reference:
| target gene | reagent | raw ATP luminescence, replicate 1 | raw ATP luminescence, replicate 2 |
| --- | --- | --- | --- |
| Dscam2 | 1 | 1.91e5 | 1.72e5 |
| Dscam2 | 2 | 65710 | 87163 |
| Dscam2 | 3 | 59090 | 81417 |
| Dscam2 | 4 | 58250 | 73097 |
